Data from patent US20100069499A1 (priority 2007, published 2010).
Some entries share one result that the patent states for a list of compounds.

Assays:
Format in all cases: in vivo
[1] = system: Erysiphe graminis f. sp. tritici; test: Test of preventive effect on wheat powdery mildew; details: wheat (Shirogane), foliage application 500 ppm, 7 days at 23° C. after inoculation
Stagonospora nodorum = test: Test of preventive effect on wheat glume blotch; details: wheat (Shirogane), foliage application 500 ppm, 4 days darkness and high humidity at 18° C. then 4 days lighting
Phytophthora infestans = details: tomato (Patio), foliage application 500 ppm, preventive, 1 day high humidity at 23° C. then 4 days greenhouse

## C#CCOc1c(F)cc(C(=O)NC2CCCCC2C)cc1Cl (stereo not shown) [compound 2, N-(2-methylcyclohexyl)-3-chloro-5-fluoro-4-(2-propynyloxy)benzamide]
[1]
  area of lesion spots on the treated plant relative to that on an untreated plant: ≤ 30%
Stagonospora nodorum
  area of lesion spots on the treated plant relative to that on an untreated plant: ≤ 30%

## C#CCOc1c(F)cc(C(=O)NC2CCCC2C)cc1Cl (stereo not shown) [compound 3, N-(2-methylcyclopentyl)-3-chloro-5-fluoro-4-(2-propynyloxy)benzamide]
Phytophthora infestans
  area of lesion spots on the treated plant relative to that on an untreated plant: ≤ 30%
[1]
  area of lesion spots on the treated plant relative to that on an untreated plant: ≤ 30%
Stagonospora nodorum
  area of lesion spots on the treated plant relative to that on an untreated plant: ≤ 30%

## C#CCOc1c(F)cc(C(=O)NCC2(O)CCCCC2)cc1Cl [compound 4, N-(1-hydroxycyclohexyl)methyl-3-chloro-5-fluoro-4-(2-propynyloxy)benzamide]
Phytophthora infestans
  area of lesion spots on the treated plant relative to that on an untreated plant: ≤ 30%

## C#CCOc1c(C)cc(C(=O)NCC2(O)CCCCC2)cc1OC [compound 7, N-(1-hydroxycyclohexyl)methyl-3-methoxy-5-methyl-4-(2-propynyloxy)benzamide]
Phytophthora infestans
  area of lesion spots on the treated plant relative to that on an untreated plant: ≤ 30%
